Results published in paper PMC6335420, “The cell cycle regulator GpsB functions as cytosolic adaptor for multiple cell wall enzymes” (Nature Communications, 2019).
Results are given in words; binding and its absence hold for the method and conditions named. A result given as binding can be weak or reduced; the word gives no strength.

The chains behind the UniProt entries cited, without tags or fusion partners. Where a name states a change or a piece, a line headed by the entry shows the natural chain unless it says otherwise.
UniProt Q8Y610: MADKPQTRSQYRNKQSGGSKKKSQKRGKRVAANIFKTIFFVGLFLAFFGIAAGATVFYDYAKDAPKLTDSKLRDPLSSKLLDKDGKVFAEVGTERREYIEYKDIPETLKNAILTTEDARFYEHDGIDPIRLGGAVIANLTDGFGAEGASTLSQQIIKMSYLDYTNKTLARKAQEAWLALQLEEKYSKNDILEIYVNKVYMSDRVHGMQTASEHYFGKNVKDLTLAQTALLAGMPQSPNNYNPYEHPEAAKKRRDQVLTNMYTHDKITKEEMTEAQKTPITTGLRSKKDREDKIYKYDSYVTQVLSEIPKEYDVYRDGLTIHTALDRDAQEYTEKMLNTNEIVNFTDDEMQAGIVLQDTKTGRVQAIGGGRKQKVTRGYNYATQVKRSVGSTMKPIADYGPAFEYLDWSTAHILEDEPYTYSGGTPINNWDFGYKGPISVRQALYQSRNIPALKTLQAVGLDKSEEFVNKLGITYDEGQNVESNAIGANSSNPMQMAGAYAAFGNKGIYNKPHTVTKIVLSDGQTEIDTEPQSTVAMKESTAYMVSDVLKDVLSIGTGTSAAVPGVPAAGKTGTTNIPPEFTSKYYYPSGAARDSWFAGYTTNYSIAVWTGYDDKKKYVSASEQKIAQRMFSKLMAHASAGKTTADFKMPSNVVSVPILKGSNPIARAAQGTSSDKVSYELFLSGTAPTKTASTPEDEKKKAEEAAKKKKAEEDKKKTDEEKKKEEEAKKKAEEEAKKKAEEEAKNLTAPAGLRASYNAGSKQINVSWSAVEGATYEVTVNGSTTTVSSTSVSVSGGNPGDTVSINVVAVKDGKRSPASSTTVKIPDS
UniProt Q8Y614: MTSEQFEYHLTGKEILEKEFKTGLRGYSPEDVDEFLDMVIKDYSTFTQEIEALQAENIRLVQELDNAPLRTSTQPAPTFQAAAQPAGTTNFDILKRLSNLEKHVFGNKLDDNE

Target: T25-PBPA1ΔGT-TP (L. monocytogenes) (UniProt Q8Y610)
Test: two-hybrid; BACTH (L. monocytogenes proteins) in E. coli BTH101; LB agar with X-Gal and IPTG, photographs after 24 and 48 h at 30 °C

Q: How did the binding turn out when “LmGpsB (BACTH fusion) (from UniProt Q8Y614 1-113)” was run?
A: binds
